Patent publication US20220177870A1

B1: VHO5-Fc (Fc fusion, not shown: a dimerising Fc or GST)
chain: EVQLLESGGGLVQPGGSLRLSCAASGFTFSSYWMHWVRQAPGKGLEWVSVINYSGSSTYYADSVKGRFTISRDNSKNTLYLQMNSLRAEDTAVYYCAMGTPGELPLDYWGQGTLVTVSS
B2: VHO4-Fc (Fc fusion, not shown: a dimerising Fc or GST)
chain: EVQLLESGGGLVQPGGSLRLSCAASGFTFSSYGMSWVRQAPGKGLEWVSAIWSDGSSTYYADSVKGRFTISRDNSKNTLYLQMNSLRAEDTAVYYCARRTWGHQFDYWGQGTLVTVSS
B3: VHO3-Fc (Fc fusion, not shown: a dimerising Fc or GST)
chain: EVQLLESGGGLVQPGGSLRLSCAASGFTFSTYWMSWVRQAPGKGLEWVSVISGDGGSTYYADSVKGRFTISRDNSKNTLYLQMNSLRAEDTAVYYCAKWKGAGRGPGALGGLDVWGQGTLVTVSS

target: beta-2-microglobulin (B2M); experiment: BLI (GatorBio), biotinylated B2M on streptavidin probe, VHO-Fc as analyte, pH 7 and pH 6

binding, no binding:
B1
B2
B3

No constants are given. Whether binding was seen depends on the method and setting. Sequences can lack the tags named with a protein.
